Laboratory results: PubChem BioAssay AID504804 (Drosophila RNAi Screening Center, 2011)
The deposit covers about 19,000 reagents; below is an unselected part of those with a known target gene and a result. Of all reagents, 47 (0.25%) got an active call. 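Signals are raw, not normalised; exact z-scores behind calls not deposited; actives needed confirmation, so some wells reaching 2 SD are inactive.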 The numbers tell different reagents against one gene apart. A plus sign joins genes that one reagent is predicted to hit. No sequences are given here.

- Assay: 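Fly genes whose loss lessens doxorubicin-driven cell death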 (primary screen)
- Cells: Drosophila Kc cells
- Reagents: long dsRNA against Drosophila genes, 0.5 µg dsRNA per well
- Timing: 96 h (48 h knock-down, then 48 h drug)
- Treatment: doxorubicin 5 µg/ml for 48 h, added 48 h after dsRNA
- Measured: 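Viability measured as cellular ATP by luminescence after 48 h knock-down then 48 h doxorubicin at 5 µg/ml; unnormalised plate counts for each replicate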
- Direction: raw ATP luminescence: higher = more viable cells, protection from doxorubicin
- Rule for the call: 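z-score of 2 or more over plate mean in both duplicates, retained only when retests and separate dsRNAs confirm the protection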

target gene	reagent no.	SD above plate mean	raw ATP luminescence, replicate 1	raw ATP luminescence, replicate 2	Call
CG32576	1		2.53e5	2.81e5	inactive
CG11664	1		52230	50710	inactive
CG9395	1		60847	64187	inactive
CG11300	1		44023	45747	inactive
CG5157	1		62557	50940	inactive
CG15891 + CG15892	1		39120	46700	inactive
CG31176	1		48960	47780	inactive
CG31176	2		51900	55770	inactive
trio	1		1.04e5	1.23e5	inactive
trio	2		53510	53737	inactive
COX7AL2	1		2.34e5	2.70e5	inactive
Prim2	1		24603	17890	inactive
SecCl	1		62357	60240	inactive
CG7386	1		86203	77207	inactive
Lcp65Ag3 + Lcp65Ag2 + Lcp65Ag1	1		76987	86760	inactive
Lcp65Ag3 + Lcp65Ag2 + Lcp65Ag1	2		83607	1.17e5	inactive
Prosbeta3	1		58257	33483	inactive
Obp19a	1		3.18e5	3.09e5	inactive
CG11162	1		3.49e5	3.20e5	inactive
CG34174	1		2.32e5	2.64e5	inactive
Ugt316A1	1		71447	57857	inactive
Miro	1	at least 2 SD above plate mean	66237	72743	active
foxo	1		34633	38194	inactive
foxo	2		57353	27517	inactive
sturkopf	1		68400	64763	inactive
lncRNA:CR32368	1		1.57e5	1.58e5	inactive
Dscam4	1		1.22e5	1.08e5	inactive
Dscam4	2		1.48e5	1.59e5	inactive
Dscam4	3		54060	72553	inactive
Dscam4	4		53773	72470	inactive
Dscam4	5		72873	75750	inactive
CG32454	1		47643	35477	inactive
CG8507	1		56730	51813	inactive
Ugt37C2	1		64747	70313	inactive
cert	1		42490	46587	inactive
Brr2	1		30900	23003	inactive
loco	1		61870	81830	inactive
loco	2		45850	37520	inactive
GstE7	1		44230	44247	inactive
CG10344	1		49320	44243	inactive
beta4GalNAcTB	1		65310	71890	inactive
Cdc23	1		78407	89947	inactive
CCKLR-17D3	1		3.35e5	2.41e5	inactive
CCKLR-17D3	2		2.53e5	2.07e5	inactive
InR	1		35910	44980	inactive
Pcif1	1		25373	29760	inactive
CG10650	1		90557	66743	inactive
tra	1		84753	60870	inactive
CG3740	1		43010	62750	inactive
CG12507	1		2.78e5	2.61e5	inactive
Art4	1		42617	52530	inactive
CG10561	1		88980	66053	inactive
eEF1delta	1		72903	64643	inactive
CG13481	1		57573	50603	inactive
CG8708	1		76673	58940	inactive
Ekar	1		49400	73240	inactive
Tom	1		15813	18430	inactive
Sur-8	1		53380	79280	inactive
PpV	1		24500	35250	inactive
VGlut	1		2.15e5	1.87e5	inactive
Calx	1		2.50e5	3.28e5	inactive
Calx	2		1.92e5	2.07e5	inactive
Calx	3		56110	70760	inactive
hry	1		23423	25720	inactive
CG31674	1	2 to 3 SD above plate mean	90450	1.10e5	active
dmrt99B	1		14710	12780	inactive
Acbp5	1		85543	74387	inactive
Gtpx	1		42640	44620	inactive
CG11839	1		65700	86630	inactive
CG18304	1		22707	31530	inactive
brp	1		54973	64913	inactive
brp	2		38513	72467	inactive
brp	3		44137	69777	inactive
CG13717 (retired record)	1		1.86e5	1.94e5	inactive
CG13717 (retired record)	2		94293	96920	inactive
CG13717 (retired record)	3		77723	66920	inactive
CG17272	1		65750	71520	inactive
Ccn	1		84247	88017	inactive
Ccn	2		83183	68863	inactive
Ccn	3		24557	23597	inactive
Ccn	4		57480	46753	inactive
eIF4B	1		2.81e5	2.92e5	inactive
ArfGAP1	1		61657	50703	inactive
TfIIEalpha	1		49510	31870	inactive
